PubChem BioAssay AID1259278 | Sanger Institute | 2017
The deposit covers 160 reagents; shown is a part drawn at random. 54 of all reagents (34%) count as active. 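Each call rests on one siRNA duplex in one cell line; gene-level support needs several duplexes and lines.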 Reagents against one gene are numbered here. Further read-outs or replicates are left out here. The record does not give: the amount of reagent, the time to read-out.

Test: 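Knock-downs synthetic lethal with BYL719, cetuximab or trametinib in colorectal cancer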 (follow-up of hits)
Cells: human HT55 colorectal cancer cells
Knock-down reagent: single siRNA against human genes
Challenge: anchor drugs added to knock-down cells: cetuximab 5 µg/ml, trametinib 10 nM or BYL719 1 µM, against DMSO vehicle; chosen to hurt viability little alone
Measured: 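Per-replicate viability normalised to control pool 2 (non-targeting) then averaged, and for every anchor drug a computed synergy score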
Reading the numbers: synergy score with BYL719 and synergy score with cetuximab and synergy score with trametinib: higher = stronger combined killing with knock-down
Call rule: 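a synergy score over 0.10 with BYL719, cetuximab or trametinib makes the knock-down a hit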
Meaning of the calls: active = synergy with an anchor drug; inactive = no synergy

Depletion of SF3B1 (GeneID 23451) #1 came out at: synergy score with BYL719 = -0.0081; synergy score with cetuximab 0.0746; synergy score with trametinib 0.0367; inactive. Against SF3B1 (GeneID 23451) #2 the deposit lists synergy score with BYL719 = -0.00522; synergy score with cetuximab 0.0273; synergy score with trametinib 0.00392; inactive. For SF3B1 (GeneID 23451) #3, the entry reads synergy score with BYL719 = 0.105; synergy score with cetuximab 0.0347; synergy score with trametinib 0.053; active. For SF3B1 (GeneID 23451) #4 the deposit lists synergy score with BYL719 = -0.0114; synergy score with cetuximab -0.0317; synergy score with trametinib -0.0737; inactive. MARK3 (GeneID 4140) #1 showed synergy score with BYL719 = -0.214; synergy score with cetuximab -0.00885; synergy score with trametinib 0.0935; inactive. With knock-down of MARK3 (GeneID 4140) #2 the results were synergy score with BYL719 = -0.00395; synergy score with cetuximab 0.0716; synergy score with trametinib 0.0878; inactive.

After knock-down of MARK3 (GeneID 4140) #3 the results were synergy score with BYL719 = 0.0801; synergy score with cetuximab 0.165; synergy score with trametinib 0.18; active. Against MARK3 (GeneID 4140) #4, the entry reads synergy score with BYL719 = 0.0707; synergy score with cetuximab 0.16; synergy score with trametinib 0.24; active. EPHA6 (GeneID 285220) #1 showed synergy score with BYL719 = -0.115; synergy score with cetuximab 0.0701; synergy score with trametinib 0.000774; inactive. With knock-down of EPHA6 (GeneID 285220) #2, the record shows synergy score with BYL719 = -0.119; synergy score with cetuximab 0.0369; synergy score with trametinib -0.00586; inactive. Against EPHA6 (GeneID 285220) #3, the values are synergy score with BYL719 = -0.0507; synergy score with cetuximab 0.0292; synergy score with trametinib 0.243; active. Knock-down of EPHA6 (GeneID 285220) #4 came out at: synergy score with BYL719 = 0.00559; synergy score with cetuximab 0.222; synergy score with trametinib 0.208; active.

Knock-down of GTF2H1 (GeneID 2965) #1 gave: synergy score with BYL719 = -0.086; synergy score with cetuximab 0.0118; synergy score with trametinib -0.0577; inactive. After knock-down of GTF2H1 (GeneID 2965) #2, the screen gave synergy score with BYL719 = -0.108; synergy score with cetuximab -0.169; synergy score with trametinib -0.00761; inactive. Silencing of GTF2H1 (GeneID 2965) #3 gave: synergy score with BYL719 = -0.0666; synergy score with cetuximab -0.00284; synergy score with trametinib -0.0475; inactive. Depletion of GTF2H1 (GeneID 2965) #4 gave: synergy score with BYL719 = -0.0136; synergy score with cetuximab -0.0756; synergy score with trametinib 0.127; active. Against HUNK (GeneID 30811) #1, the values are synergy score with BYL719 = 0.00177; synergy score with cetuximab 0.119; synergy score with trametinib -0.0123; active. For HUNK (GeneID 30811) #2, the entry reads synergy score with BYL719 = -0.123; synergy score with cetuximab 0.133; synergy score with trametinib 0.0432; active.

After knock-down of HUNK (GeneID 30811) #3 the results were synergy score with BYL719 = -0.0102; synergy score with cetuximab 0.0639; synergy score with trametinib 0.0324; inactive. For HUNK (GeneID 30811) #4 the deposit lists synergy score with BYL719 = 0.0983; synergy score with cetuximab 0.188; synergy score with trametinib 0.154; active. NR2F2 (GeneID 7026) #1 scored synergy score with BYL719 = 0.0824; synergy score with cetuximab 0.0281; synergy score with trametinib 0.207; active. NR2F2 (GeneID 7026) #2 showed synergy score with BYL719 = -0.104; synergy score with cetuximab 0.0409; synergy score with trametinib 0.129; active. NR2F2 (GeneID 7026) #3 gave synergy score with BYL719 = -0.184; synergy score with cetuximab 0.0617; synergy score with trametinib 0.00774; inactive. Depletion of NR2F2 (GeneID 7026) #4 resulted in: synergy score with BYL719 = -0.0308; synergy score with cetuximab -0.0851; synergy score with trametinib 0.122; active.

After knock-down of IRAK3 (GeneID 11213) #1, the record shows synergy score with BYL719 = -0.0772; synergy score with cetuximab 0.118; synergy score with trametinib 0.0814; active. Depletion of IRAK3 (GeneID 11213) #2 came out at: synergy score with BYL719 = -0.103; synergy score with cetuximab 0.088; synergy score with trametinib 0.304; active. Depletion of IRAK3 (GeneID 11213) #3 resulted in: synergy score with BYL719 = -0.144; synergy score with cetuximab 0.023; synergy score with trametinib 0.000399; inactive. With knock-down of IRAK3 (GeneID 11213) #4 the results were synergy score with BYL719 = 0.132; synergy score with cetuximab 0.03; synergy score with trametinib 0.158; active.
